# In PubChem BioAssay AID540256 (National Center for Advancing Translational Sciences (NCATS), 2011):
# In all, about 300,000 compounds went through this assay and about 3,700 (1.2%) were called active. Inconclusive means that the source gave no clear call. Such entries were picked first, then a sample of the others. Calls follow the shape of the full dose curve; tested in HEK293 cells. A potency beside an inconclusive call is a rough fit, not a confirmed value.
# Test: qHTS for Inhibitors of binding or entry into cells for Lassa Virus; also: nearly all actives have a fitted effect of over 50% in size
# Settings: Lassa virus pseudotype entry inhibition, cell reporter; series mostly up to 37.9 µM
# Potency is read from the fitted curve at half-maximal effect.
row,Structure (SMILES),Potency
1,Cc1oc2ncnc(N3CCCCC3)c2c1C(=O)NCC1CCN(Cc2ccccc2F)CC1,inactive
2,Cc1ccc(CNC(=O)c2oc3ccc(S(=O)(=O)N4CCCC(C)C4)cc3c2C)cc1 (configuration not stated),"inconclusive: 25.1 µM [inhibitor, single point]"
3,COc1ccc(S(=O)(=O)N2CCCCC2)cc1NC(=O)c1c(F)cccc1Cl,"inconclusive: 8.91 µM [inhibitor, partial curve, poor fit]"
4,CC1=C(C(=O)OC2CCCCC2)C(c2cccnc2)n2nnnc2N1 (configuration not stated),"inconclusive: 29.1 µM [inhibitor, single point]"
5,CCNC(=O)c1cccc(S(=O)(=O)N2CCCCCC2)c1,"inconclusive: 6.51 µM [inhibitor, full curve]"
6,CCc1n[nH]c2c1/C(=N\O)CC(c1ccccc1)C2 (configuration not stated),inactive
7,CCOc1ccc(CNC(=O)Cn2nc(C)c3nn(-c4ccc(Cl)cc4)c(C)c3c2=O)cc1,"inconclusive: 3.16 µM [inhibitor, single point]"
8,Cc1ccc(Nc2nc(N)nc(CSC(=S)N3CCOCC3)n2)cc1,"inconclusive: 3.26 µM [activator, full curve, poor fit]"
9,Cc1ccc(Cn2c(C)c3cnn(CC(=O)N4CCC5(CC4)OCCO5)c(=O)c3c2C)cc1,"inconclusive: 11.2 µM [inhibitor, partial curve, poor fit]"
10,CC(Nc1nc(-c2ccccc2O)nc2ccccc12)c1ccccc1 (configuration not stated),inactive
11,Nc1cc(OC(=O)c2ccc(F)cc2)nn1S(=O)(=O)c1ccc(F)cc1,active: 2 µM
12,O=C(COC(=O)c1ccc(S(=O)(=O)N2CCCCC2)cc1)NCc1ccc(F)cc1,"inconclusive: 15.8 µM [activator, single point]"
13,Cc1cccc(-c2nc3ccc(C(=O)N4CCC5(CC4)OCCO5)cc3nc2-c2cccc(C)c2)c1,"inconclusive: 14.1 µM [inhibitor, single point]"
14,Cc1cccc(COCC(CC(C)C)N2CCN(C(=O)c3ccc(C(F)(F)F)cc3)CCC2=O)c1 (configuration not stated),"inconclusive: 20.6 µM [inhibitor, single point]"
15,CCOC(=O)C1=C(N)OC2=C(C(=O)CCC2)C12C(=O)N(CC(N)=O)c1ccccc12 (configuration not stated),"inconclusive: 31.6 µM [activator, single point]"
16,Cc1ccc(C(=O)Nc2ccc(N3CCOCC3)c3nonc23)cc1[N+](=O)[O-],"inconclusive: 7.08 µM [inhibitor, full curve, poor fit]"
17,Cc1ccc(-c2nc(N)n(S(C)(=O)=O)n2)cc1,"inconclusive: 3.16 µM [activator, partial curve, poor fit]"

# Quoted at random: 2 compounds from above.
row,Structure (SMILES),Potency
6,CCc1n[nH]c2c1/C(=N\O)CC(c1ccccc1)C2 (configuration not stated),inactive
13,Cc1cccc(-c2nc3ccc(C(=O)N4CCC5(CC4)OCCO5)cc3nc2-c2cccc(C)c2)c1,"inconclusive: 14.1 µM [inhibitor, single point]"
